Experimental findings from patent publication US6506373B1, “Agent and method for permanent waving” (Wella Aktiengesellschaft, priority 1998, dated 2003) are described below.

Structures are written as SMILES. Read-outs that look alike come from different tables or passages of the source.

For this series the following is noted: average of 3 strands.

For the compound `O=C1O[C@H]([C@@H](O)CO)C(=O)C1=O` [Dehydroascorbic Acid, dehydroascorbic acid], the Cystine is, setting by setting: (3 permanent wave treatments) 570 µmol/g; (6 permanent wave treatments) 546 µmol/g.

Consider `OO` [Peroxide, hydrogen peroxide, reference compound], for which the Cystine by setting is: (3 permanent wave treatments) 541 µmol/g; (6 permanent wave treatments) 429 µmol/g.
